Laboratory results taken from patent publication US20260317367A1, “SALTS INCLUDING CRYSTALLINE SALTS OF 25-HYDROXY-CHOLEST-5-EN-3-SULFATE AND METHODS FOR PREPARING SAME” (Durect Corporation, priority 2022, published 2026).
Where a name gives a salt, the structure may show the parent alone. Further values from the same series stand in other lists. Values belong to the compound of their own block, whether it stands above or below them.

Experiment: Solubility of 25HC3S salts after one day at room temperature (HPLC, as free acid)
Type: physicochemical
Settings: 1440 min; for Solubility in ACN: acetonitrile; for Solubility in EtOH: ethanol; for Solubility in EtOH / Solubility in MeOH: ≥ = did not reach saturation; for Solubility in IPA: isopropyl alcohol; for Solubility in MeOH: methanol; for Solubility in H2O: water
Protocol: These fluids were prepared per the instruction listed by Biorelevant (Biorelevant.com). Each buffer concentrate was diluted with water and mixed well. FaSSIF, FeSSIF, FaSSGF powder was added to each buffer and mixed to completely dissolve the powder. Buffers were stored at room temperature and used within 48 hours of preparation.
25HC3S salts were weighed in 8 mL or 4 mL glass vials with Teflon coated screw caps. Aliquots of each solvent were added to each sample and vortexed for about one minute until excess solid remained. Samples were placed on shaker at room temperature with 210 motion per minute shaking.
After one day, samples were pulled and checked if excess solid was present. About 1.5 mL aliquot of each sample was centrifuged at 12000 rpm for 12 to 15 minutes. […] Aliquots of the top clear solution of each centrifuged sample in MeOH, EtOH, IPA and ACN were diluted with diluent (water:MeOH 95:5) and assayed by HPLC. Samples of the salts in aqueous media were assayed by HPLC without dilution.
All solubility sample solutions of 25HC3S salts were determined using HPLC. A linear standard curve was constructed using standards with concentration between 11 μg/mL to 1.5 mg/mL as free acid forcing the curve to origin. Solubilities are reported as mg/mL free acid 25HC3S. Detection limit (LOD) of the HPLC method was calculated as 0.0007 mg/mL.

[1] = ND = not detected, detection limit 0.7 μg/mL, listed as 25HC3S magnesium
[2] = ND = not detected, detection limit 0.7 μg/mL, listed as 25HC3S calcium
[3] = ND = not detected, detection limit 0.7 μg/mL, listed as 25HC3S tromethammonium
[4] = listed as 25HC3S tromethammonium
[5] = ND = not detected, detection limit 0.7 μg/mL, listed as 25HC3S diethanolamine
[6] = listed as 25HC3S diethanolamine
[7] = ND = not detected, detection limit 0.7 μg/mL, listed as 25HC3S meglumine
[8] = ND = not detected, detection limit 0.7 μg/mL, listed as 25HC3S t-butylammonium
[9] = listed as 25HC3S t-butylammonium
[10] = listed as 25HC3S hydroxyethylpyrrolidinium
[11] = ND = not detected, detection limit 0.7 μg/mL, listed as 25HC3S potassium

Compound: CC(CCCC(C)(C)O)C1CCC2C3CC=C4CC(OS(=O)(=O)O)CCC4(C)C3CCC12C (stereo not shown) [Salt #13]
Solubility in 5% Dextrose [1]: 0.008 mg/mL
Solubility in FaSSIF (listed as 25HC3S magnesium): 0.096 mg/mL
Solubility in FeSSIF (listed as 25HC3S magnesium): 0.479 mg/mL
Solubility in ACN (listed as 25HC3S magnesium): 0.01 mg/mL
Solubility in EtOH (listed as 25HC3S magnesium): ≥26.7 mg/mL
Solubility in IPA (listed as 25HC3S magnesium): 2.5 mg/mL
Solubility in MeOH (listed as 25HC3S magnesium): ≥69.0 mg/mL
Solubility in H2O [1]: 0.006 mg/mL

Compound: CC(CCCC(C)(C)O)C1CCC2C3CC=C4CC(OS(=O)(=O)O)CCC4(C)C3CCC12C (stereo not shown) [Salt #2]
Solubility in 5% Dextrose [2]: 0.005 mg/mL
Solubility in FaSSGF [2]: 0.005 mg/mL
Solubility in FaSSIF (listed as 25HC3S calcium): 0.152 mg/mL
Solubility in FeSSIF (listed as 25HC3S calcium): 0.629 mg/mL
Solubility in ACN (listed as 25HC3S calcium): 0.004 mg/mL
Solubility in EtOH (listed as 25HC3S calcium): 1.0 mg/mL
Solubility in IPA (listed as 25HC3S calcium): 0.02 mg/mL
Solubility in MeOH (listed as 25HC3S calcium): 27.4 mg/mL
Solubility in H2O [2]: 0.006 mg/mL

Compound: CC(CCCC(C)(C)O)C1CCC2C3CC=C4CC(OS(=O)(=O)O)CCC4(C)C3CCC12C (stereo not shown) [Salt #8]
Solubility in 5% Dextrose [3]: 0.130 mg/mL
Solubility in FaSSGF [3]: 0.011 mg/mL
Solubility in FaSSIF [4]: 0.138 mg/mL
Solubility in FeSSIF [4]: 0.722 mg/mL
Solubility in ACN [4]: 0.1 mg/mL
Solubility in EtOH [4]: 18.1 mg/mL
Solubility in IPA [4]: 3.2 mg/mL
Solubility in MeOH [4]: 39.6 mg/mL
Solubility in H2O [3]: 0.120 mg/mL

Compound: CC(CCCC(C)(C)O)C1CCC2C3CC=C4CC(OS(=O)(=O)O)CCC4(C)C3CCC12C (stereo not shown) [Salt #10]
Solubility in 5% Dextrose [5]: 0.069 mg/mL
Solubility in FaSSGF [5]: 0.011 mg/mL
Solubility in FaSSIF [6]: 0.157 mg/mL
Solubility in FeSSIF [6]: 0.858 mg/mL
Solubility in ACN [6]: 0.2 mg/mL
Solubility in EtOH [6]: 19.4 mg/mL
Solubility in IPA [6]: 3.7 mg/mL
Solubility in MeOH [6]: ≥64.2 mg/mL
Solubility in H2O [5]: 0.083 mg/mL

The remaining lines, values ahead:

Solubility in FaSSIF (listed as 25HC3S benzathine): 0.004 mg/mL
Solubility in FeSSIF (listed as 25HC3S benzathine): 0.025 mg/mL
Solubility in ACN (listed as 25HC3S benzathine): 0.03 mg/mL
Solubility in EtOH (listed as 25HC3S benzathine): 0.07 mg/mL
Solubility in IPA (listed as 25HC3S benzathine): 0.03 mg/mL
Solubility in MeOH (listed as 25HC3S benzathine): 0.2 mg/mL
Solubility in H2O (ND = not detected, detection limit 0.7 μg/mL, listed as 25HC3S benzathine): 0.005 mg/mL
Compound: CC(CCCC(C)(C)O)C1CCC2C3CC=C4CC(OS(=O)(=O)O)CCC4(C)C3CCC12C (stereo not shown) [Salt #9]

Solubility in 5% Dextrose [7]: 0.113 mg/mL
Solubility in FaSSGF [7]: 0.048 mg/mL
Solubility in FaSSIF (listed as 25HC3S meglumine): 0.134 mg/mL
Solubility in FeSSIF (listed as 25HC3S meglumine): 0.653 mg/mL
Solubility in ACN (listed as 25HC3S meglumine): 0.04 mg/mL
Solubility in EtOH (listed as 25HC3S meglumine): 2.9 mg/mL
Solubility in IPA (listed as 25HC3S meglumine): 0.4 mg/mL
Solubility in MeOH (listed as 25HC3S meglumine): 18.9 mg/mL
Solubility in H2O [7]: 0.158 mg/mL
Compound: CC(CCCC(C)(C)O)C1CCC2C3CC=C4CC(OS(=O)(=O)O)CCC4(C)C3CCC12C (stereo not shown) [Salt #7]

Solubility in 0.9% NaCl (0.9% NaCl, ND = not detected, detection limit 0.7 μg/mL, listed as 25HC3S t-butylammonium): 0.003 mg/mL
Solubility in 5% Dextrose [8]: 0.026 mg/mL
Solubility in FaSSGF [8]: 0.028 mg/mL
Solubility in FaSSIF [9]: 0.162 mg/mL
Solubility in FeSSIF [9]: 0.787 mg/mL
Solubility in ACN [9]: 0.1 mg/mL
Solubility in EtOH [9]: 15.0 mg/mL
Solubility in IPA [9]: 3.3 mg/mL
Solubility in MeOH [9]: 39.6 mg/mL
Solubility in H2O [8]: 0.029 mg/mL
Compound: CC(CCCC(C)(C)O)C1CCC2C3CC=C4CC(OS(=O)(=O)O)CCC4(C)C3CCC12C (stereo not shown) [Salt #12]

Solubility in FeSSIF [10]: 0.857 mg/mL
Solubility in EtOH [10]: ≥15.7 mg/mL
Solubility in MeOH [10]: ≥48.2 mg/mL
Compound: CC(CCCC(C)(C)O)C1CCC2C3CC=C4CC(OS(=O)(=O)O)CCC4(C)C3CCC12C (stereo not shown) [Salt #6]

Solubility in 5% Dextrose [11]: 0.035 mg/mL
Solubility in FaSSGF [11]: 0.002 mg/mL
Solubility in FaSSIF (listed as 25HC3S potassium): 0.079 mg/mL
Solubility in FeSSIF (listed as 25HC3S potassium): 0.521 mg/mL
Solubility in ACN (listed as 25HC3S potassium): 0.1 mg/mL
Solubility in EtOH (listed as 25HC3S potassium): 0.9 mg/mL
Solubility in IPA (listed as 25HC3S potassium): 0.2 mg/mL
Solubility in MeOH (listed as 25HC3S potassium): 5.1 mg/mL
Solubility in H2O [11]: 0.038 mg/mL
Compound: CC(CCCC(C)(C)O)C1CCC2C3CC=C4CC(OS(=O)(=O)O)CCC4(C)C3CCC12C (stereo not shown) [Salt #1]
